Assay results from PubChem BioAssay (Tox21).
This list was built around the results that the source calls inconclusive (neither active nor inactive); the mix of calls is not that of the screen. Entries that show only a call come without a potency. For some assays here: A potency beside an inconclusive call is a rough fit, not a confirmed value. The source made the active and inactive calls. Unless noted, calls come from the whole dose curve.

Assays:
[1] = p53 small molecule agonists, cell-based qHTS assay: qHTS cell viability counter screen (AID 1963581); note: nearly all actives have a fitted effect of over 45% in size; note: potency is the fitted concentration of half-maximal effect
Outline: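 qHTS counter screen: 16 h compound exposure at 37 C of p53RE-bla HCT-116 cells (4,000 per well, seeded 5 h prior), cell viability by ATP luminescence.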

[2] = cAMP Responsive Elements (CRE) small molecule agonists, cell-based qHTS assay (AID 1963590); details: CRE-bla HEK293T, beta-lactamase FRET ratio, 3 h; activation: at 92.4 µM (top of the series) unless noted; note: potency is the fitted concentration of half-maximal effect
Outline: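 Test agents in DMSO were incubated 3 h at 37 C/5% CO2 with CRE-bla HEK 293T cells seeded 18 h earlier; LiveBLAzer B/G FRET substrate was added and read after 2 h at room temperature.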

[3] = biological target: Beta-2 adrenergic receptor (Homo sapiens) (UniProt P07550); test: Adrenergic beta2 receptor (ADRB2) small molecule agonists, cell-based qHTS assay (AID 1963593); details: CHO-ADRB2 cells, cAMP HTRF, 30 min; activation: at 92.4 µM (top of the series) unless noted; note: potency is the fitted concentration of half-maximal effect;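 for activation: CHO cells stably overexpressing human ADRB2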
Outline: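 CHO cells stably over-expressing ADRB2 were plated overnight at 37C, then dosed with compounds plus a stimulation mix containing 100uM IBMX and 25uM Ro-20-1724 for 0.5hr at room temperature. cAMP was measured by HTRF competition, 1hr.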

[4] = cAMP Responsive Elements (CRE) small molecule antagonists, cell-based qHTS assay (AID 1963591; active = well fitted inhibition curve with a large enough effect in the signal ratio in the repeat runs, not every such curve was filed as active; inconclusive = weak or mixed curves, or effect the other way; the % refers to the signal ratio; note: potency is the fitted concentration of half-maximal effect); details: CRE-bla HEK293T, beta-lactamase FRET ratio; activity change, negative = inhibition: at 92.4 µM (top of the series) unless noted
Outline: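 Reporter line CRE-bla HEK 293T in dialyzed-FBS DMEM; cells preincubated 18 h, treated 3 h with compound plus NKH477 (0.25 uM final); LiveBLAzer FRET, 2 h RT.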

[5] = biological target: Beta-2 adrenergic receptor (Homo sapiens) (UniProt P07550); test: Adrenergic beta2 receptor (ADRB2) small molecule antagonists, cell-based qHTS assay (AID 1963592); details: CHO-ADRB2 cells, isoproterenol-stimulated cAMP HTRF ratio, 0.5 h; activity change, negative = inhibition: at 92.4 µM (top of the series) unless noted; note: nearly all actives have a fitted effect of over 50% in size
Outline: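 Assay format: CHO-ADRB2 cells, 18-20hr seeding at 37C/5% CO2, then compound plus 1nM isoproterenol agonist mix for 0.5hr RT. Homogeneous time-resolved fluorescence cAMP detection after 1hr, expressed as 665/615 nm ratio.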

Structure (SMILES) | Potency [1] | Potency [2] | Potency [3] | Potency [4] | Potency [5]
C=CC(=O)OCCCCCC | active: 0.363 µM | inactive | inactive | – | –
OCC(CO)n1cnc(-c2ccc(F)cc2)c1-c1ccnc(Oc2ccccc2)n1 | inconclusive: 0.288 µM [cytotoxic, partial curve, poor fit] | inconclusive: 48.5 µM [rising, partial curve, poor fit] | inactive | inconclusive: 61.1 µM [activator, partial curve, poor fit] | –
CCCCCCC/C=C/C=O | inactive | inconclusive: 54.5 µM [rising, partial curve] | inactive | – | inactive
O=C1CCCCCO1 | inconclusive: 20.6 µM [rising, single point] | inactive | inconclusive: 27.5 µM [inhibitor, single point] | – | –
